Values of other authors as cited in patent publication US9382205B2, “Processes for the manufacture of a pharmaceutically active agent” (H. Lundbeck A/S, priority 2009, dated 2016).

Target: human 5-HT6 receptor
Conditions: from Roth et al. 1994

Ki: 33 nM
Structure (SMILES): OCCOCCN1CCN(C2=Nc3ccccc3Sc3ccccc32)CC1 [quetiapine]
